Earlier results in patent US20130053387A1, “DESAZADESFERROTHIOCIN AND DESAZADESFERROTHIOCIN POLYETHER ANALOGUES AS METAL CHELATION AGENTS” (FerroKin BioScience, Inc., priority 2010, published 2013).
At least one structure is not confirmed: it was looked up by name or label, or the drawing left a doubt.

Settings: standard of care; species not stated; cited from earlier work

**Q.** With `CC(=O)N(O)CCCCCNC(=O)CCC(=O)N(O)CCCCCNC(=O)CCC(=O)N(O)CCCCCN` [deferoxamine, N′-[5-(acetyl-hydroxy-amino)pentyl]-N-[5-[3-(5-aminopentyl-hydroxy-carbamoyl)propanoylamino]pentyl]-N-hydroxy-butane diamide] as the compound, how does the ICE read?
**A.** The ICE was 3%.
